Laboratory results published in patent publication US20250145665A1, “MACROCYCLIC PEPTIDES USEFUL AS MODULATORS OF TNF ALPHA” (Bristol-Myers Squibb Company, priority 2023, published 2025).
pIC50: −log10 of the molar value. Some entries share one result that the patent states for a list of compounds. Starred links: 1 amine or outer side, 2 acyl side, 3 side chain; linkers in the order of their positions; H or OH if unused. Positions of bridges follow the written chain, without caps; N, C: chain ends. Non-standard residues stand in square brackets, D forms with d. Residues, ends and D or L forms follow the SMILES beside them. ξ: configuration not given here. *: point of attachment. X84 = O=C(Oc1cccc(-c2ccc(C[C@H](N[*:1])C(=O)[*:2])cc2)c1)c1csc(-c2ccncc2)n1; X46 = O=C(Cc1cccc(C(=O)O)c1)Nc1ccc(-c2ccc(C[C@H](N[*:1])C(=O)[*:2])cc2)cc1; X78 = O=C(Nc1ccc(-c2ccc(C[C@H](N[*:1])C(=O)[*:2])cc2)cc1)c1n[nH]c2ccccc12; X17 = O=C(Nc1cccc(-c2ccc(C[C@H](N[*:1])C(=O)[*:2])cc2)c1)c1coc2ccccc12; X73 = O=C(O)CCCC(=O)Nc1ccc(-c2ccc(C[C@H](N[*:1])C(=O)[*:2])cc2)cc1; X64 = O=C(O)CCC(=O)Nc1ccc(-c2ccc(C[C@H](N[*:1])C(=O)[*:2])cc2)cc1; Bip(4'-NH) = O=C([C@H](Cc1ccc(-c2ccc(N[*:3])cc2)cc1)N[*:1])[*:2]; Bip(4'-CONHMe) = CNC(=O)c1ccc(-c2ccc(C[C@H](N)C(=O)O)cc2)cc1; Bip(4'-COOH) = N[C@@H](Cc1ccc(-c2ccc(C(=O)O)cc2)cc1)C(=O)O; Bip(4'-NHAc) = CC(=O)Nc1ccc(-c2ccc(C[C@H](N)C(=O)O)cc2)cc1; X49 = O=C([C@H](Cc1ccc(-c2cccc(N[*:3])c2)cc1)N[*:1])[*:2]; Ala(morpholin-4-yl) = N[C@@H](CN1CCOCC1)C(=O)O; Phe(3-CONH2) = NC(=O)c1cccc(C[C@H](N)C(=O)O)c1; Bip = N[C@@H](Cc1ccc(-c2ccccc2)cc1)C(=O)O; X24 = O=C(O)COc1cc(-c2ccccc2)ccc1C(=O)*; X31 = Cn1c(C(=O)*)cc2cccc(Cl)c21; X57 = Cn1c(C(=O)*)cc2c(Cl)cccc21; X32 = O=C(c1sc2cccc(Cl)c2c1Cl)*; Cha = N[C@@H](CC1CCCCC1)C(=O)O; Chg = N[C@H](C(=O)O)C1CCCCC1; X50 = O=C(O)COc1ccccc1C(=O)*; ξE = NC(CCC(=O)O)C(=O)O; Sar = CNCC(=O)O

Chains of the proteins cited; added tags and fusions are not shown. Residues count along the entry.
UniProt P01375, 77-233 limits assumed: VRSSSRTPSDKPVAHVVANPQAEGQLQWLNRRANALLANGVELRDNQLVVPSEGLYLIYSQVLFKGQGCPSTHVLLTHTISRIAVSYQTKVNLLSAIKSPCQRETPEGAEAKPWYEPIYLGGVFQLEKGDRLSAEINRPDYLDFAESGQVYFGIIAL

biological target: TNFα (Homo sapiens, UniProt P01375); test: TNF-Induced HEK-Blue Assay; type: cell-based; conditions: summary statement for all examples; read-out: IC50 values measured in the TNF induced HEK-Blue assay

pIC50, ≥ 4.60:
CC[C@H](C)[C@@H]1NC(=O)[C@@H](CCCNC(=N)N)NC(=O)[C@H](CC(=O)O)NC(=O)[C@H](Cc2cnc[nH]2)NC(=O)CN(C)C(=O)[C@H](Cc2ccc(-c3ccc(NC(=O)c4cc5c(Cl)cccc5n4C)cc3)cc2)NC(=O)[C@H](Cc2ccc(-c3ccccc3)cc2)NC(=O)[C@H](CC2CCCCC2)NC(=O)CSC[C@@H](C(=O)NCC(N)=O)NC(=O)[C@H](CC(C)C)NC(=O)[C@H](Cc2cnc[nH]2)NC(=O)[C@H](C(C)C)NC(=O)[C@@H]2CCCN2C1=O [Example 319] ({CH2CO}-[Cha][Bip][Bip(4'-NH)](X57)[Sar]HD[dR]IPVHLCG-NH2; thioether N-13)
CC(=O)Nc1ccc(-c2ccc(C[C@@H]3NC(=O)[C@H](Cc4ccc(-c5ccc(C(=O)O)cc5)cc4)NC(=O)[C@H](CN4CCOCC4)NC(=O)CSC[C@@H](C(=O)NCC(N)=O)NC(=O)[C@H](CC(C)C)NC(=O)[C@H](Cc4cccc(C(N)=O)c4)NC(=O)[C@H](C4CCCCC4)NC(=O)[C@@H]4CCCN4C(=O)[C@H](C(C)C)NC(=O)[C@@H](CCCNC(=N)N)NC(=O)[C@H](CC(=O)O)NC(=O)[C@@H]4CCCN4C(=O)CN(C)C3=O)cc2)cc1 [Example 320] ({CH2CO}-[Ala(morpholin-4-yl)][Bip(4'-COOH)][Bip(4'-NHAc)][Sar]PD[dR]VP[Chg][Phe(3-CONH2)]LCG-NH2; thioether N-13)
CC(=O)Nc1ccc(-c2ccc(C[C@@H]3NC(=O)[C@H](Cc4ccc(-c5ccccc5)cc4)NC(=O)[C@H](CC4CCCCC4)NC(=O)CSC[C@@H](C(=O)NC(CCC(=O)O)C(N)=O)NC(=O)[C@H](CC(C)C)NC(=O)[C@H](Cc4ccc(O)cc4)NC(=O)[C@H](C(C)C)NC(=O)[C@@H]4CCCN4C(=O)[C@H](C(C)C)NC(=O)[C@@H](CCCNC(=N)N)NC(=O)[C@H](CC(=O)O)NC(=O)[C@@H]4CCCN4C(=O)CN(C)C3=O)cc2)cc1 (stereo partly shown) [Example 321] ({CH2CO}-[Cha][Bip][Bip(4'-NHAc)][Sar]PD[dR]VPVYLC[ξE]-NH2; thioether N-13)
CC[C@H](C)[C@@H]1NC(=O)[C@@H](CCCNC(=N)N)NC(=O)[C@H](CC(=O)O)NC(=O)[C@H](Cc2cnc[nH]2)NC(=O)CN(C)C(=O)[C@H](Cc2ccc(-c3ccc(NC(=O)CCC(=O)O)cc3)cc2)NC(=O)[C@H](Cc2ccc(-c3ccccc3)cc2)NC(=O)[C@H](CC2CCCCC2)NC(=O)CSC[C@@H](C(=O)NCC(N)=O)NC(=O)[C@H](CC(C)C)NC(=O)[C@H](Cc2cnc[nH]2)NC(=O)[C@H](C(C)C)NC(=O)[C@@H]2CCCN2C1=O [Example 323] ({CH2CO}-[Cha][Bip][X64][Sar]HD[dR]IPVHLCG-NH2; thioether N-13)
CC[C@H](C)[C@@H]1NC(=O)[C@@H](CCCNC(=N)N)NC(=O)[C@H](CC(=O)O)NC(=O)[C@H](Cc2cnc[nH]2)NC(=O)CN(C)C(=O)[C@H](Cc2ccc(-c3ccc(NC(=O)CCCC(=O)O)cc3)cc2)NC(=O)[C@H](Cc2ccc(-c3ccccc3)cc2)NC(=O)[C@H](CC2CCCCC2)NC(=O)CSC[C@@H](C(=O)NCC(N)=O)NC(=O)[C@H](CC(C)C)NC(=O)[C@H](Cc2cnc[nH]2)NC(=O)[C@H](C(C)C)NC(=O)[C@@H]2CCCN2C1=O [Example 324] ({CH2CO}-[Cha][Bip][X73][Sar]HD[dR]IPVHLCG-NH2; thioether N-13)
CC[C@H](C)[C@@H]1NC(=O)[C@@H](CCCNC(=N)N)NC(=O)[C@H](CC(=O)O)NC(=O)[C@H](Cc2cnc[nH]2)NC(=O)CN(C)C(=O)[C@H](Cc2ccc(-c3ccc(NC(=O)c4sc5cccc(Cl)c5c4Cl)cc3)cc2)NC(=O)[C@H](Cc2ccc(-c3ccccc3)cc2)NC(=O)[C@H](CC2CCCCC2)NC(=O)CSC[C@@H](C(=O)NCC(N)=O)NC(=O)[C@H](CC(C)C)NC(=O)[C@H](Cc2cnc[nH]2)NC(=O)[C@H](C(C)C)NC(=O)[C@@H]2CCCN2C1=O [Example 325] ({CH2CO}-[Cha][Bip][Bip(4'-NH)](X32)[Sar]HD[dR]IPVHLCG-NH2; thioether N-13)
CC[C@H](C)[C@@H]1NC(=O)[C@@H](CCCNC(=N)N)NC(=O)[C@H](CC(=O)O)NC(=O)[C@H](Cc2cnc[nH]2)NC(=O)CN(C)C(=O)[C@H](Cc2ccc(-c3ccc(NC(=O)c4cc5cccc(Cl)c5n4C)cc3)cc2)NC(=O)[C@H](Cc2ccc(-c3ccccc3)cc2)NC(=O)[C@H](CC2CCCCC2)NC(=O)CSC[C@@H](C(=O)NCC(N)=O)NC(=O)[C@H](CC(C)C)NC(=O)[C@H](Cc2cnc[nH]2)NC(=O)[C@H](C(C)C)NC(=O)[C@@H]2CCCN2C1=O [Example 326] ({CH2CO}-[Cha][Bip][Bip(4'-NH)](X31)[Sar]HD[dR]IPVHLCG-NH2; thioether N-13)
CC(C)C[C@@H]1NC(=O)[C@H](CCCNC(=N)N)NC(=O)[C@H](C(C)C)NC(=O)[C@@H]2CCCN2C(=O)[C@H](C(C)C)NC(=O)[C@@H](CCCNC(=N)N)NC(=O)[C@H](CC(=O)O)NC(=O)[C@@H]2CCCN2C(=O)CN(C)C(=O)[C@H](Cc2ccc(-c3cccc(NC(=O)c4ccccc4OCC(=O)O)c3)cc2)NC(=O)[C@H](Cc2ccc(-c3ccccc3)cc2)NC(=O)[C@H](CN2CCOCC2)NC(=O)CSC[C@@H](C(=O)NCC(N)=O)NC1=O [Example 327] ({CH2CO}-[Ala(morpholin-4-yl)][Bip][X49](X50)[Sar]PD[dR]VPVRLCG-NH2; thioether N-13)
CC[C@H](C)[C@@H]1NC(=O)[C@@H](CCCNC(=N)N)NC(=O)[C@H](CC(=O)O)NC(=O)[C@H](Cc2cnc[nH]2)NC(=O)CN(C)C(=O)[C@H](Cc2ccc(-c3ccc(NC(=O)Cc4cccc(C(=O)O)c4)cc3)cc2)NC(=O)[C@H](Cc2ccc(-c3ccccc3)cc2)NC(=O)[C@H](CC2CCCCC2)NC(=O)CSC[C@@H](C(=O)NCC(N)=O)NC(=O)[C@H](CC(C)C)NC(=O)[C@H](Cc2cnc[nH]2)NC(=O)[C@H](C(C)C)NC(=O)[C@@H]2CCCN2C1=O [Example 328] ({CH2CO}-[Cha][Bip][X46][Sar]HD[dR]IPVHLCG-NH2; thioether N-13)
CC[C@H](C)[C@@H]1NC(=O)[C@@H](CCCNC(=N)N)NC(=O)[C@H](CC(=O)O)NC(=O)[C@H](Cc2cnc[nH]2)NC(=O)CN(C)C(=O)[C@H](Cc2ccc(-c3ccc(NC(=O)c4ccccc4OCC(=O)O)cc3)cc2)NC(=O)[C@H](Cc2ccc(-c3ccccc3)cc2)NC(=O)[C@H](CC2CCCCC2)NC(=O)CSC[C@@H](C(=O)NCC(N)=O)NC(=O)[C@H](CC(C)C)NC(=O)[C@H](Cc2cnc[nH]2)NC(=O)[C@H](C(C)C)NC(=O)[C@@H]2CCCN2C1=O [Example 329] ({CH2CO}-[Cha][Bip][Bip(4'-NH)](X50)[Sar]HD[dR]IPVHLCG-NH2; thioether N-13)
CC[C@H](C)[C@@H]1NC(=O)[C@@H](CCCNC(=N)N)NC(=O)[C@H](CC(=O)O)NC(=O)[C@H](Cc2cnc[nH]2)NC(=O)CN(C)C(=O)[C@H](Cc2ccc(-c3ccc(NC(=O)c4ccc(-c5ccccc5)cc4OCC(=O)O)cc3)cc2)NC(=O)[C@H](Cc2ccc(-c3ccccc3)cc2)NC(=O)[C@H](CC2CCCCC2)NC(=O)CSC[C@@H](C(=O)NCC(N)=O)NC(=O)[C@H](CC(C)C)NC(=O)[C@H](Cc2cnc[nH]2)NC(=O)[C@H](C(C)C)NC(=O)[C@@H]2CCCN2C1=O [Example 330] ({CH2CO}-[Cha][Bip][Bip(4'-NH)](X24)[Sar]HD[dR]IPVHLCG-NH2; thioether N-13)
CC[C@H](C)[C@@H]1NC(=O)[C@@H](CCCNC(=N)N)NC(=O)[C@H](CC(=O)O)NC(=O)[C@H](Cc2cnc[nH]2)NC(=O)CN(C)C(=O)[C@H](Cc2ccc(-c3ccc(C(=O)NC)cc3)cc2)NC(=O)[C@H](Cc2ccc(-c3ccc(C(=O)O)cc3)cc2)NC(=O)[C@H](CC2CCCCC2)NC(=O)CSC[C@@H](C(=O)NCC(N)=O)NC(=O)[C@H](CC(C)C)NC(=O)[C@H](Cc2cnc[nH]2)NC(=O)[C@H](C(C)C)NC(=O)[C@@H]2CCCN2C1=O [Example 331] ({CH2CO}-[Cha][Bip(4'-COOH)][Bip(4'-CONHMe)][Sar]HD[dR]IPVHLCG-NH2; thioether N-13)
CC(C)C[C@@H]1NC(=O)[C@H](CCCNC(=N)N)NC(=O)[C@H](C(C)C)NC(=O)[C@@H]2CCCN2C(=O)[C@H](C(C)C)NC(=O)[C@@H](CCCNC(=N)N)NC(=O)[C@H](CC(=O)O)NC(=O)[C@@H]2CCCN2C(=O)CN(C)C(=O)[C@H](Cc2ccc(-c3cccc(OC(=O)c4csc(-c5ccncc5)n4)c3)cc2)NC(=O)[C@H](Cc2ccc(-c3ccccc3)cc2)NC(=O)[C@H](CN2CCOCC2)NC(=O)CSC[C@@H](C(=O)NCC(N)=O)NC1=O [Example 332] ({CH2CO}-[Ala(morpholin-4-yl)][Bip][X84][Sar]PD[dR]VPVRLCG-NH2; thioether N-13)
CC[C@H](C)[C@@H]1NC(=O)[C@@H](CCCNC(=N)N)NC(=O)[C@H](CC(=O)O)NC(=O)[C@H](Cc2cnc[nH]2)NC(=O)CN(C)C(=O)[C@H](Cc2ccc(-c3ccc(NC(C)=O)cc3)cc2)NC(=O)[C@H](Cc2ccc(-c3ccc(C(=O)NC)cc3)cc2)NC(=O)[C@H](CC2CCCCC2)NC(=O)CSC[C@@H](C(=O)NCC(N)=O)NC(=O)[C@H](CC(C)C)NC(=O)[C@H](Cc2cnc[nH]2)NC(=O)[C@H](C(C)C)NC(=O)[C@@H]2CCCN2C1=O [Example 342] ({CH2CO}-[Cha][Bip(4'-CONHMe)][Bip(4'-NHAc)][Sar]HD[dR]IPVHLCG-NH2; thioether N-13)
CC(C)C[C@@H]1NC(=O)[C@H](CCCNC(=N)N)NC(=O)[C@H](C(C)C)NC(=O)[C@@H]2CCCN2C(=O)[C@H](C(C)C)NC(=O)[C@@H](CCCNC(=N)N)NC(=O)[C@H](CC(=O)O)NC(=O)[C@@H]2CCCN2C(=O)CN(C)C(=O)[C@H](Cc2ccc(-c3ccc(NC(=O)c4n[nH]c5ccccc45)cc3)cc2)NC(=O)[C@H](Cc2ccc(-c3ccccc3)cc2)NC(=O)[C@H](CN2CCOCC2)NC(=O)CSC[C@@H](C(=O)NCC(N)=O)NC1=O [Example 343] ({CH2CO}-[Ala(morpholin-4-yl)][Bip][X78][Sar]PD[dR]VPVRLCG-NH2; thioether N-13)
CC(C)C[C@@H]1NC(=O)[C@H](CCCNC(=N)N)NC(=O)[C@H](C(C)C)NC(=O)[C@@H]2CCCN2C(=O)[C@H](C(C)C)NC(=O)[C@@H](CCCNC(=N)N)NC(=O)[C@H](CC(=O)O)NC(=O)[C@@H]2CCCN2C(=O)CN(C)C(=O)[C@H](Cc2ccc(-c3cccc(NC(=O)c4coc5ccccc45)c3)cc2)NC(=O)[C@H](Cc2ccc(-c3ccccc3)cc2)NC(=O)[C@H](CN2CCOCC2)NC(=O)CSC[C@@H](C(=O)NCC(N)=O)NC1=O [Example 344] ({CH2CO}-[Ala(morpholin-4-yl)][Bip][X17][Sar]PD[dR]VPVRLCG-NH2; thioether N-13)
